# For at least one compound, name, drawing or mass did not settle the structure.
# Experiments:
# [1] = test system: α-glucosidase; assay: Evaluation of the inhibition effect for α-glucosidase activity (p-NPG substrate, absorbance 405 nm); format: biochemical; conditions: at the concentration 0.32 mg/ml; FIG. 1
# [2] = test system: α-amylase; assay: Evaluation on the inhibition effect for α-amylase activity (starch substrate, DNS reagent, absorbance 570 nm); format: biochemical; conditions: at the concentration 0.04 mg/ml; FIG. 2B
compound,measurement,setting,value
C[C@H]1O[C@H](O[C@H]2[C@H](O)[C@@H](O)[C@@H](O[C@H]3[C@H](O)[C@@H](O)C(O)O[C@@H]3CO)O[C@@H]2CO)[C@H](O)[C@@H](O)[C@@H]1N[C@H]1C=C(CO)[C@@H](O)[C@H](O)[C@H]1O (some centres unmarked) [acarbose],inhibition rate for α-glucosidase activity,[1],45.08%
same,inhibition rate for α-amylase activity,[2],34.43%

# — patent US20190209638A1, “NATURAL COMPOSITION HAVING ALPHA-GLUCOSIDASE ACTIVITY INHIBITION EFFECT AND USED FOR REGULATING THE ABSORPTION OF BLOOD GLUCOSE AND CARBOHYDRATE” (Syi Biotechnology Co.,Ltd., priority 2018, published 2019)
